Source: PubChem BioAssay AID188 (DTP/NCI, 2004)
Shown are survivors of the treated group in tumour-free mice. Survivors were counted at the toxicity check, usually on the fifth day, unless a day is given; later deaths do not show. Schedules are NCI's codes, taken here to give the interval after Q, in days (D) or hours (H), and the number of doses after X.

Test system: CD2F1 mice, nontumored, toxicity/survival
Experiment: NCI In Vivo Anticancer Drug Screen. Data for tumor model Nontumored Animals (Toxicity Test) in CD2F1 (CDF1) mice

SMILES: COc1cccc2c1C(=O)c1c(O)c3c(c(O)c1C2=O)C[C@@](O)(/C(C)=N/NC(=O)c1ccccc1)C[C@@H]3OC1CC(N)C(O)C(C)O1 (stereo partly drawn)
- survivor count (dose: 0.13 mg/kg/injection, schedule: Q03HX008 (ip), vehicle: water): 8 of 8
- survivor count (dose: 0.13 mg/kg/injection, schedule: Q03HX016 (ip), vehicle: water): 8 of 8
- survivor count (dose: 0.13 mg/kg/injection, schedule: Q03HX024 (ip), vehicle: water): 8 of 8
- survivor count (dose: 0.25 mg/kg/injection, schedule: Q03HX008 (ip), vehicle: water): 8 of 8
- survivor count (dose: 0.25 mg/kg/injection, schedule: Q03HX016 (ip), vehicle: water): 8 of 8
- survivor count (dose: 0.25 mg/kg/injection, schedule: Q03HX024 (ip), vehicle: water): 8 of 8
- survivor count (dose: 0.5 mg/kg/injection, schedule: Q01DX009 (ip), vehicle: water): 8 of 8
- survivor count (dose: 0.5 mg/kg/injection, schedule: Q01DX009 (sc), vehicle: water): 8 of 8
- survivor count (dose: 0.5 mg/kg/injection, schedule: Q03HX008 (ip), vehicle: water): 8 of 8
- survivor count (dose: 0.5 mg/kg/injection, schedule: Q03HX016 (ip), vehicle: water): 8 of 8
- survivor count (dose: 0.5 mg/kg/injection, schedule: Q03HX024 (ip), vehicle: water): 8 of 8
- survivor count (dose: 1.0 mg/kg/injection, schedule: Q01DX001 (ip), vehicle: water): 8 of 8
- survivor count (dose: 1.0 mg/kg/injection, schedule: Q01DX001 (sc), vehicle: water): 8 of 8
- survivor count (dose: 1.0 mg/kg/injection, schedule: Q01DX009 (ip), vehicle: other): 8 of 8
- survivor count (dose: 1.0 mg/kg/injection, schedule: Q01DX009 (ip), vehicle: water): 8 of 8
- survivor count (dose: 1.0 mg/kg/injection, schedule: Q01DX009 (sc), vehicle: water): 8 of 8
- survivor count (dose: 1.0 mg/kg/injection, schedule: Q03HX008 (ip), vehicle: water): 8 of 8
- survivor count (dose: 1.0 mg/kg/injection, schedule: Q03HX016 (ip), vehicle: water): 8 of 8
- survivor count (dose: 1.0 mg/kg/injection, schedule: Q03HX024 (ip), vehicle: water): 8 of 8
- survivor count (dose: 1.0 mg/kg/injection, schedule: Q04DX003 (ip), vehicle: water): 8 of 8
- survivor count (dose: 1.0 mg/kg/injection, schedule: Q08DX002 (ip), vehicle: water): 8 of 8
- survivor count (dose: 2.0 mg/kg/injection, schedule: Q01DX001 (ip), vehicle: water): 8 of 8
- survivor count (dose: 2.0 mg/kg/injection, schedule: Q01DX001 (sc), vehicle: water): 8 of 8
- survivor count (dose: 2.0 mg/kg/injection, schedule: Q01DX009 (ip), vehicle: other): 8 of 8
- survivor count (dose: 2.0 mg/kg/injection, schedule: Q01DX009 (ip), vehicle: water): 8 of 8
- survivor count (dose: 2.0 mg/kg/injection, schedule: Q01DX009 (sc), vehicle: water): 8 of 8
- survivor count (dose: 2.0 mg/kg/injection, schedule: Q03HX008 (ip), vehicle: water): 8 of 8
- survivor count (dose: 2.0 mg/kg/injection, schedule: Q03HX016 (ip), vehicle: water): 8 of 8
- survivor count (dose: 2.0 mg/kg/injection, schedule: Q03HX024 (ip), vehicle: water): 8 of 8
- survivor count (dose: 2.0 mg/kg/injection, schedule: Q04DX003 (ip), vehicle: water): 8 of 8
- survivor count (dose: 2.0 mg/kg/injection, schedule: Q08DX002 (ip), vehicle: water): 8 of 8
- survivor count (dose: 4.0 mg/kg/injection, schedule: Q01DX001 (ip), vehicle: water): 8 of 8
- survivor count (dose: 4.0 mg/kg/injection, schedule: Q01DX001 (sc), vehicle: water): 8 of 8
- survivor count (dose: 4.0 mg/kg/injection, schedule: Q01DX009 (ip), vehicle: other): 8 of 8
- survivor count (dose: 4.0 mg/kg/injection, schedule: Q01DX009 (ip), vehicle: water): 8 of 8
- survivor count (dose: 4.0 mg/kg/injection, schedule: Q01DX009 (oral), vehicle: water): 8 of 8
- survivor count (dose: 4.0 mg/kg/injection, schedule: Q01DX009 (sc), vehicle: water): 8 of 8
- survivor count (dose: 4.0 mg/kg/injection, schedule: Q03HX008 (ip), vehicle: water): 8 of 8
- survivor count (dose: 4.0 mg/kg/injection, schedule: Q03HX016 (ip), vehicle: water): 8 of 8
- survivor count (dose: 4.0 mg/kg/injection, schedule: Q03HX024 (ip), vehicle: water): 8 of 8
- survivor count (dose: 4.0 mg/kg/injection, schedule: Q04DX003 (ip), vehicle: water): 8 of 8
- survivor count (dose: 4.0 mg/kg/injection, schedule: Q08DX002 (ip), vehicle: water): 8 of 8
- survivor count (dose: 8.0 mg/kg/injection, schedule: Q01DX001 (ip), vehicle: water): 8 of 8
- survivor count (dose: 8.0 mg/kg/injection, schedule: Q01DX001 (sc), vehicle: water): 8 of 8
- survivor count (dose: 8.0 mg/kg/injection, schedule: Q01DX009 (ip), vehicle: other): 8 of 8
- survivor count (dose: 8.0 mg/kg/injection, schedule: Q01DX009 (ip), vehicle: water): 8 of 8
- survivor count (dose: 8.0 mg/kg/injection, schedule: Q01DX009 (oral), vehicle: water): 5 of 8
- survivor count (dose: 8.0 mg/kg/injection, schedule: Q01DX009 (sc), vehicle: water): 8 of 8
- survivor count (dose: 8.0 mg/kg/injection, schedule: Q04DX003 (ip), vehicle: water): 8 of 8
- survivor count (dose: 8.0 mg/kg/injection, schedule: Q08DX002 (ip), vehicle: water): 8 of 8
- survivor count (dose: 16.0 mg/kg/injection, schedule: Q01DX001 (ip), vehicle: water): 8 of 8
- survivor count (dose: 16.0 mg/kg/injection, schedule: Q01DX001 (oral), vehicle: water): 8 of 8
- survivor count (dose: 16.0 mg/kg/injection, schedule: Q01DX001 (sc), vehicle: water): 8 of 8
- survivor count (dose: 16.0 mg/kg/injection, schedule: Q01DX009 (ip), vehicle: other): 8 of 8
- survivor count (dose: 16.0 mg/kg/injection, schedule: Q01DX009 (ip), vehicle: water): 8 of 8
- survivor count (dose: 16.0 mg/kg/injection, schedule: Q01DX009 (oral), vehicle: water): 7 of 8
- survivor count (dose: 16.0 mg/kg/injection, schedule: Q01DX009 (sc), vehicle: water): 8 of 8
- survivor count (dose: 16.0 mg/kg/injection, schedule: Q04DX003 (ip), vehicle: water): 8 of 8
- survivor count (dose: 16.0 mg/kg/injection, schedule: Q08DX002 (ip), vehicle: water): 8 of 8
- survivor count (dose: 32.0 mg/kg/injection, schedule: Q01DX001 (ip), vehicle: water): 8 of 8
- survivor count (dose: 32.0 mg/kg/injection, schedule: Q01DX001 (oral), vehicle: water): 8 of 8
- survivor count (dose: 32.0 mg/kg/injection, schedule: Q01DX001 (sc), vehicle: water): 8 of 8
- survivor count (dose: 32.0 mg/kg/injection, schedule: Q01DX009 (oral), vehicle: water): 8 of 8
- survivor count (dose: 32.0 mg/kg/injection, schedule: Q04DX003 (ip), vehicle: water): 8 of 8
- survivor count (dose: 32.0 mg/kg/injection, schedule: Q08DX002 (ip), vehicle: water): 8 of 8
- survivor count (dose: 64.0 mg/kg/injection, schedule: Q01DX001 (oral), vehicle: water): 5 of 8
- survivor count (dose: 64.0 mg/kg/injection, schedule: Q01DX009 (oral), vehicle: water): 5 of 8
- survivor count (dose: 128.0 mg/kg/injection, schedule: Q01DX001 (oral), vehicle: water): 7 of 8
- survivor count (dose: 256.0 mg/kg/injection, schedule: Q01DX001 (oral), vehicle: water): 7 of 8

SMILES: Nc1nc(Br)c2ccccc2c1-c1ccc([N+](=O)[O-])cc1
- survivor count (dose: 1.0 mg/kg/injection, schedule: Q01DX001 (ip), vehicle: saline with Tween-80): 2 of 2
- survivor count (dose: 10.0 mg/kg/injection, schedule: Q01DX001 (ip), vehicle: saline with Tween-80): 2 of 2
- survivor count (dose: 100.0 mg/kg/injection, schedule: Q01DX001 (ip), vehicle: saline with Tween-80): 2 of 2

SMILES: COc1ccc2c(c1O)-c1cc(O)cc3c1C(C2)NCC3 (stereo not drawn)
- survivor count (dose: 1.0 mg/kg/injection, schedule: Q01DX001 (ip), vehicle: DMSO): 2 of 2
- survivor count (dose: 10.0 mg/kg/injection, schedule: Q01DX001 (ip), vehicle: DMSO): 0 of 2
- survivor count (dose: 100.0 mg/kg/injection, schedule: Q01DX001 (ip), vehicle: DMSO): 0 of 2

SMILES: COc1ccc(N=NN(C)C)cc1
- survivor count (dose: 19.0 mg/kg/injection, schedule: Q01DX009 (ip), vehicle: Klucel (hydroxypropylcellulose) (HPC)): 10 of 10
- survivor count (dose: 29.0 mg/kg/injection, schedule: Q01DX009 (ip), vehicle: Klucel (hydroxypropylcellulose) (HPC)): 9 of 10
- survivor count (dose: 44.0 mg/kg/injection, schedule: Q01DX009 (ip), vehicle: Klucel (hydroxypropylcellulose) (HPC)): 9 of 10
- survivor count (dose: 67.0 mg/kg/injection, schedule: Q01DX009 (ip), vehicle: Klucel (hydroxypropylcellulose) (HPC)): 6 of 10
- survivor count (dose: 100.0 mg/kg/injection, schedule: Q01DX009 (ip), vehicle: Klucel (hydroxypropylcellulose) (HPC)): 5 of 10

SMILES: CC12CCC(O)CC1CCC1C2CCC2(C)C(c3ccc(=O)oc3)CCC12O (stereo not drawn)
- survivor count (dose: 0.5 mg/kg/injection, schedule: Q01DX001 (ip), vehicle: saline): 2 of 2
- survivor count (dose: 5.0 mg/kg/injection, schedule: Q01DX001 (ip), vehicle: saline): 2 of 2
- survivor count (dose: 50.0 mg/kg/injection, schedule: Q01DX001 (ip), vehicle: saline): 0 of 2
